Measured values published in PubChem BioAssay AID2551 (National Center for Advancing Translational Sciences (NCATS), 2010).
“And” between values parts separate entries of the source, which are not always exact repeats. Identical values can stand only once. Among all 310,000 compounds or so, about 17,000 (5.5%) were called active. The shares of active, inactive and inconclusive entries below differ from those in the screen. The call rests on the fitted dose curve; in most records, active means well fitted inhibition curve with a large enough effect; inconclusive means small, poorly fitted or top-dose-only effect, or effect the other way; inactive means no such curve, though single readings can be large or run the other way. Potencies of inconclusive entries are doubtful fits and often do not repeat. Where a structure was tested more than once in an assay, its records may differ in their call.

Chains of the proteins cited; added tags and fusions are not shown. Lines headed by an entry give the natural chain unless they say otherwise; changes in a name come on top.
UniProt P51450: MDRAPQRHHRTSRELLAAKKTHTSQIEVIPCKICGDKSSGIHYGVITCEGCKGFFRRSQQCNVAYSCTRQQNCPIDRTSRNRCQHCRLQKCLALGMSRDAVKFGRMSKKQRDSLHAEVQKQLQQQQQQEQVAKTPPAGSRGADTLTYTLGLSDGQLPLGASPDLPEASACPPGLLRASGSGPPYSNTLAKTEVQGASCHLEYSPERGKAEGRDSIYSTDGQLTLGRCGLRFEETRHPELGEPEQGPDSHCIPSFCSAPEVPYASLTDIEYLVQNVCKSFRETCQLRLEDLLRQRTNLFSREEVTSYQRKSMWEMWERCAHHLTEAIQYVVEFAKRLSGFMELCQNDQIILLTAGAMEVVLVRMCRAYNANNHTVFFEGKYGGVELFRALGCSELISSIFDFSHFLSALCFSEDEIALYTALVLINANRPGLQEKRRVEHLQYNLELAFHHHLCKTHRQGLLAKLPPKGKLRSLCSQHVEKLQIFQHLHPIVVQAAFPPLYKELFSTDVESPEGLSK

These compounds were tested against Nuclear receptor ROR-gamma (Mus musculus) (UniProt P51450) (assay: qHTS for inhibitors of ROR gamma transcriptional activity). Conditions: Drosophila S2 Gal4-RORgamma UAS-luciferase reporter, 20 h; activity change, negative = inhibition: at 53.6 µM (top of the series).
Outline: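 Drosophila S2 cells stably expressing Gal4-DBD/mouse RORγ fusion under metallothionein promoter plus UAS-luciferase; compound 1 h, then 700 uM CuSO4 induction for 20 h at ambient temperature; inhibition read as reduced luminescence.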
Further: nearly all actives have a fitted effect of over 60% in size.
On the % scale 0 is the no-effect control and ±100 the full control effect; potency means the concentration at half of the fitted maximal effect.

Compound	Potency	activity change, negative = inhibition
COc1ccc(NS(=O)(=O)c2ccc(-c3cnc(C4CC4)o3)cc2)cc1OC	inconclusive: 4.47 µM [activator, partial curve]	–
COc1cccc(NC(=S)NC(=O)c2cccnc2)c1	active: 20 µM	–
COc1cc(-c2nc3ccc4ccccc4c3c3c2CCC3)cc(OC)c1OC	active: 5.62 µM	–
CCN(CC)CCNc1ncnc2c1sc1nc(N3CCOCC3)c3c(c12)CC(C)(C)SC3	inconclusive: 35.5 µM [inhibitor, single point]	–
COc1ccc(-c2ccc(SCC(=O)NCc3ccco3)nn2)cc1	–	inactive: -12% [at 10 µM]
CCCCNC(=S)NC(=O)c1ccc(Cl)cc1Cl	active: 15.8 µM	–
NC(=NCCc1ccc(Cl)cc1)NS(=O)(=O)c1ccc(F)cc1	inconclusive: 15.8 µM [activator, single point]	–
COCCN(CC(=O)NC1CCCCC1)C(=O)/C=C/C(=O)c1ccc(OC)cc1O	–	inactive: -7.43%
COc1ccc(S(=O)(=O)c2c(N)n(Cc3ccco3)c3nc4ccccc4nc23)cc1	inconclusive: 11.2 µM [activator, partial curve]	–
C=C[C@](C)(O)CCC1C(=C)CCC2[C@@](C)(CO)CCC[C@@]12C (stereo partly drawn)	inconclusive: 35.5 µM [activator, single point]	–
Cc1ccc(-c2cn3cc([N+](=O)[O-])ccc3n2)cc1	inconclusive: 25.1 µM [inhibitor, single point]	–
COc1ccc(S(=O)(=O)NCC(c2cccnc2)N2CCN(c3ccc(F)cc3)CC2)cc1C (stereo not drawn)	inconclusive: 7.08 µM [activator, partial curve]	–
CC(=O)N(Cc1ccco1)c1nc(C(=O)Nc2ccc(Cl)cc2)c(C)s1	inconclusive: 12.6 µM [activator, partial curve]	–
O=C1CSC(c2ccc([N+](=O)[O-])cc2)N1c1ccc(O)cc1 (stereo not drawn)	inconclusive: 35.5 µM [activator, single point]	–
COc1cc2ccccc2cc1C(=O)NCc1ccncc1	–	inactive: -13.6%
O=C(O)C1CC=CCC1C(=O)Nc1ccc2c(c1)OCCO2 (stereo not drawn)	inconclusive: 7.94 µM [inhibitor, partial curve]	–
CCOc1ccc(CCN2C(=O)C3C4C=CC(C4)C3C2=O)cc1OCC (stereo not drawn)	inconclusive: 2.51 µM [activator, full curve]	–
O=C(c1ccc(S(=O)(=O)N2CCOCC2)cc1)N(Cc1ccco1)Cc1cccs1	inconclusive: 20 µM [activator, single point]	–
Cc1ccc(C)c(CNS(=O)(=O)c2ccc3c(c2)C(C)(C)C(=O)N3C)c1	inconclusive: 17.8 µM [inhibitor, single point]	–
CC1=C(C(=O)OC(C)C)C(c2cccc(F)c2)n2ncnc2N1 (stereo not drawn)	inconclusive: 14.1 µM [activator, single point]	–
CCCOC(=O)C1=C(C)NC2=C(C(=O)C(C(=O)OC)C(C)C2)C1c1ccc(N(CC)CC)cc1 (stereo not drawn)	inconclusive: 20 µM [activator, single point]	–
CCOC(=O)c1c(-c2ccccc2)c2cc(OC)ccc2n1CCCN(C)C	–	inactive: -8.32%
O=C(CSC1=NCCS1)NC(NC(=O)CSC1=NCCS1)c1ccccc1	inconclusive: 1.12 µM [inhibitor, full curve, poor fit]	–
C/C(=N/NC(=O)c1cccs1)c1cccs1	inconclusive: 17.8 µM [inhibitor, single point]	–
N#Cc1cccc(-c2nc3cnc(Oc4cccc(Cl)c4)nc3n(C3CC3)c2=O)c1	inconclusive: 10 µM [activator, partial curve]	–

Compound	Potency	activity change, negative = inhibition
C(=N\Nc1nc2ccccc2s1)/c1ccccn1	active: 0.1 µM	–
Cn1cc(C(=O)c2ccc(Cl)cc2)cc1-c1nc2ccccc2n1C	inconclusive: 28.2 µM [activator, single point]	–
Cc1cc(/C=C2\C(=O)NN(c3ccccc3)C2=O)c(C)n1-c1ccccc1O	–	inactive: -5.45%
Cc1ccc(OCC(=O)NCCNC(=O)c2cccnc2)cc1C	–	inactive: 5.36%
CCOC(=O)c1ccc(NS(=O)(=O)c2c(C)nc3sccn3c2=O)cc1	inconclusive: 12.6 µM [activator, partial curve]	–
CCc1ccc(S(=O)(=O)N/N=C\c2ccc([N+](=O)[O-])o2)cc1	inconclusive: 15.8 µM [inhibitor, partial curve, poor fit]	–
Cc1ccccc1Nc1c(F)c(F)c(F)c(F)c1C(=O)O	–	inactive: 3.52%
Cc1cc(N/N=C/c2ccc(O)cc2)c2cccc(C)c2n1	inconclusive: 35.5 µM [inhibitor, single point]	–
CN1CCN(c2ccccc2NC(=O)c2ccc(Br)o2)CC1	inconclusive: 1 µM [inhibitor, partial curve]	–
CC(=O)CSc1cc(-c2ccccc2)nc2ncnn12	active: 2.51 µM	–
NNC(=O)c1cccn(Cc2cccc(C(F)(F)F)c2)c1=O	inconclusive: 20 µM [activator, single point]	–
N#C/C(=C\c1ccc(O)c(O)c1)C(=O)NCCCc1ccccc1	inactive and active: 22.4 µM	–
Cc1ccc(NC(=O)CN(C)C(=O)c2cccc(Br)c2)cc1	inconclusive: 0.126 µM [activator, full curve, poor fit]	–
O=C(/C=C/c1ccco1)N1CCc2ccccc21	inconclusive: 22.4 µM [inhibitor, single point]	–
CCOc1ccc(NC(=S)c2ccncc2)cc1	–	inactive: 30.9%
CCOC(=O)CC(=O)CSc1ncnc2c1nnn2-c1ccc(OC)cc1	active: 8.91 µM	–
CC1(C)Cc2c(sc3c2c(=N)n(Cc2ccco2)c(=O)n3CC(=O)Nc2cccc(Cl)c2)CO1	inconclusive: 6.31 µM [activator, full curve]	–
CCOC(=O)N1CCc2c(sc3c2c(=O)n(-c2ccc(CC)cc2)c(=O)n3CC(=O)NCC2CCCO2)C1 (stereo not drawn)	–	inactive: 41.5%
CCc1ccc(/C=N/NC(=O)c2c[nH]c3ccccc23)s1	active: 11.2 µM	–
CC(=O)N1c2ccc(S(=O)(=O)NCCC(=O)N3CCC(C)CC3)cc2CC1C (stereo not drawn)	–	inactive: 0.293%
COc1ncc2nc(C)c(=O)n(C)c2n1	–	inactive: -6.54%
Nc1c(C(=O)NC2CCCC2)sc2nc(-c3cccs3)ccc12	inconclusive: 11.2 µM [activator, partial curve, poor fit]	–
O=C(COc1ccccc1)NCc1cccs1	inconclusive: 7.94 µM [activator, partial curve]	–
O=[N+]([O-])c1cc(S(=O)(=O)Nc2ccccc2)ccc1-n1nnc2ccccc21	inconclusive: 35.5 µM [activator, single point]	–
O=C(CN(Cc1ccccc1)S(=O)(=O)c1ccc2c(c1)OCCO2)N/N=C/c1cccc(Br)c1	–	inactive: 15.7%

Compound	Potency	activity change, negative = inhibition
CC(NC(=O)CCNS(=O)(=O)c1ccccc1)c1ccccc1 (stereo not drawn)	inconclusive: 35.5 µM [inhibitor, single point]	–
CCn1c(=O)c(C(=O)NCc2ccccn2)c(O)c2ccccc21	active: 3.16 µM	–
CCCCOc1ccc2c(C)cc(=O)oc2c1OCCCC	inconclusive: 20 µM [activator, partial curve]	–
CCOC(=O)C(Cc1ccc(NC(=O)/C(=C/c2ccccc2)NC(=O)c2ccccc2)cc1)N1C(=O)c2ccccc2C1=O (stereo not drawn)	–	inactive: 4.67%
O=C(Nc1nc(-c2ccccc2)cs1)C1CCCCN1S(=O)(=O)c1ccc(Cl)cc1 (stereo not drawn)	inconclusive: 35.5 µM [activator, single point]	–
CCn1c2ccccc2c2cc(NC(=O)CSc3nnc(-c4ccccc4)o3)ccc21	–	inactive: -0.662%
COc1ccc(N2CCN(C(CNC(=O)CC(C)(C)C)c3ccc4c(c3)OCO4)CC2)cc1 (stereo not drawn)	–	inactive: 9.8%
Cc1ccc(C)c(NS(=O)(=O)c2cc(C(=O)N3CCc4ccccc4C3)ccc2Cl)c1	inconclusive: 15.8 µM [activator, single point]	–
COc1cc(/C=N/Nc2nc(-c3ccc(S(=O)(=O)N(C)C)cc3)cs2)ccc1O	inconclusive: 12.6 µM [activator, partial curve]	–
COc1cc(C(=O)OCC(=O)NC(N)=O)cc(CN2C(=O)c3ccccc3C2=O)c1OC	–	inactive: -0.0187%
CCOc1ccc(C(=O)COc2ccc(NC(C)=O)cc2)cc1	inconclusive: 10 µM [activator, partial curve]	–
OC1CCCN(C(=S)Nc2ccc(SC(F)F)cc2)C1 (stereo not drawn)	–	inactive: 11.7%
Cc1ccccc1CN1CCN(CC2CC3C=CC2C3)CC1 (stereo not drawn)	–	inactive: -36.5%
CN(c1ccc(OCC(=O)NC2CCCC2)cc1)S(=O)(=O)c1cccs1	inconclusive: 10 µM [activator, partial curve]	–
CCCN(CCC)CCNC(=O)C1CCN(Cc2nc(-c3ccc(Cl)cc3)oc2C)CC1	–	inactive: 2.28%
O=C(CN1C(=O)NC2(CCCC2)C1=O)OCCOc1ccccc1	–	inactive: -6.8%
CCOc1ccc(N=NC2C(=O)N(C(N)=S)N=C2C)cc1 (stereo not drawn)	active: 0.316 µM	–
Cn1c(=O)oc2cc(S(=O)(=O)Nc3ccccc3F)ccc21	–	inactive: 25.5%
CC(=O)Oc1ccc(C(=O)Nc2ccc(S(=O)(=O)NCC3CCCO3)cc2)cc1 (stereo not drawn)	inconclusive: 35.5 µM [activator, single point]	–
c1ccc(-c2cnc(CSc3nnc4ccccn34)o2)cc1	–	inactive: -27.5%
COc1ccccc1N=C1NC(=O)/C(=C/c2ccc(N(C)C)cc2)S1	inconclusive: 31.6 µM [inhibitor, single point]	–
O=C(NCc1cccs1)c1cc2ccccc2o1	inconclusive: 7.94 µM [activator, partial curve, poor fit]	–
O=C(NC1CC1)c1cc2cc(Br)ccc2s1	inconclusive: 11.2 µM [inhibitor, single point]	–
